# Data published in the supplement of paper PMC8728848.
# The other results are listed elsewhere or left out.
# B1: PX14343I-pdi-501-30-501 (Parabacteroides distasonis) (protein)
# chain: SDQYSTETFWKTKEHASAGIMGCYNALKLWRSLHTMEFDMLTANAMPYNEANGTQAIGKGEHLSTTALIGSLWKNCYVGIGRTNTFIANVGGVDMDESEKAKMVGEAKFLRAFYYLSLVDKFGGVPLIIDAPNADEQAELPRNSKEEVVNQIVKDLEEAAAVLPDTYASSDLGRATKGAALALKARTLLYNSRWAEAAQAAKQVMESGVYQLFNDYRHFFSEDNKYNCEVIFDIEAKLPEYPTDYDQNIWRLNRPAPLKELVDTYLCVDGKTIEESPLYDPTRPYENRDPRLLKSIVCIGYPYLGKTITKEDVATTGFGVKKYTSYEDDVTIPLVERSAFNFILIRYAEVLLTYAEAQNEASGPDQSVYDAINQLRRRPDINMPEVPKGLTKDQMREVIRRERRIELTFEGLYYSDILRWKTAEKENNGMMHNYEGIEVVKRSFNPKRDYLWPIPYNQTVLNPNLEQNPNWD
# Legend:
# Assay in all cases: glycan array binding signal (z-score within array); higher = stronger binding
# Conditions in all cases: glycan notation: IUPAC condensed, linker removed
# Neu5Ac(a2-3)GalNAc = biological target: Neu5Ac(a2-3)GalNAc
# Outline: (§1)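 Glycan array data were curated from 3228 arrays in the Consortium for Functional Glycomics database and kept only where the protein sequence was available. Glycan names were converted to IUPAC-condensed notation, and columns mapping to the same glycan were averaged. The binding signal is a within-array Z-score, averaged across arrays of the same protein sequence at different concentrations or buffers and across linkers. Negative Z-scores can be read as non-binding.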
# [1] = biological target: Neu5Ac(a2-3)GalNAc(b1-4)GlcNAc
# Outline: as §1
# [2] = biological target: Neu5Ac(a2-3)[GalNAc(b1-4)]Gal(b1-4)Glc
# Outline: as §1
# [3] = biological target: Neu5Ac(a2-3)[GalNAc(b1-4)]Gal(b1-4)GlcNAc
# Outline: as §1
# [4] = biological target: Neu5Ac(a2-3)[GalNAc(b1-4)]Gal(b1-4)GlcNAc(b1-3)GalNAc
# Outline: as §1
# [5] = biological target: Neu5Ac(a2-3)[Neu5Ac(a2-6)]GalNAc
# Outline: as §1
# Neu5Ac(a2-6)Gal = biological target: Neu5Ac(a2-6)Gal
# Outline: as §1
# [6] = biological target: Neu5Ac(a2-6)Gal(b1-3)GlcNAc(b1-3)[Gal(b1-4)GlcNAc(b1-6)]Gal(b1-4)Glc
# Outline: as §1
# Neu5Ac(a2-6)Gal(b1-4)Glc = biological target: Neu5Ac(a2-6)Gal(b1-4)Glc
# Outline: as §1
# [7] = biological target: Neu5Ac(a2-6)Gal(b1-4)GlcNAc
# Outline: as §1
# [8] = biological target: Neu5Ac(a2-6)Gal(b1-4)GlcNAc(b1-2)Man
# Outline: as §1
# [9] = biological target: Neu5Ac(a2-6)Gal(b1-4)GlcNAc(b1-2)Man(a1-3)Man(b1-4)GlcNAc(b1-4)GlcNAc
# Outline: as §1
# [10] = biological target: Neu5Ac(a2-6)Gal(b1-4)GlcNAc(b1-2)Man(a1-3)[Gal(b1-4)GlcNAc(b1-2)Man(a1-6)]Man(b1-4)GlcNAc(b1-4)GlcNAc
# Outline: as §1
# [11] = biological target: Neu5Ac(a2-6)Gal(b1-4)GlcNAc(b1-2)Man(a1-3)[GlcNAc(b1-2)Man(a1-6)]Man(b1-4)GlcNAc(b1-4)GlcNAc
# Outline: as §1
# [12] = biological target: Neu5Ac(a2-6)Gal(b1-4)GlcNAc(b1-2)Man(a1-3)[GlcNAc(b1-4)][Neu5Ac(a2-6)Gal(b1-4)GlcNAc(b1-2)Man(a1-6)]Man(b1-4)GlcNAc(b1-4)GlcNAc
# Outline: as §1
# [13] = biological target: Neu5Ac(a2-6)Gal(b1-4)GlcNAc(b1-2)Man(a1-3)[Man(a1-6)]Man(b1-4)GlcNAc(b1-4)GlcNAc
# Outline: as §1
# [14] = biological target: Neu5Ac(a2-6)Gal(b1-4)GlcNAc(b1-2)Man(a1-3)[Neu5Ac(a2-3)Gal(b1-4)GlcNAc(b1-2)Man(a1-6)]Man(b1-4)GlcNAc(b1-4)GlcNAc
# Outline: as §1
# [15] = biological target: Neu5Ac(a2-6)Gal(b1-4)GlcNAc(b1-2)Man(a1-3)[Neu5Ac(a2-6)Gal(b1-4)GlcNAc(b1-2)Man(a1-6)]Man(b1-4)GlcNAc(b1-4)GlcNAc
# Outline: as §1
# [16] = biological target: Neu5Ac(a2-6)Gal(b1-4)GlcNAc(b1-2)Man(a1-3)[Neu5Ac(a2-6)Gal(b1-4)GlcNAc(b1-2)Man(a1-6)]Man(b1-4)GlcNAc(b1-4)[Fuc(a1-6)]GlcNAc
# Outline: as §1
# [17] = biological target: Neu5Ac(a2-6)Gal(b1-4)GlcNAc(b1-2)Man(a1-6)Man(b1-4)GlcNAc(b1-4)GlcNAc
# Outline: as §1
# [18] = biological target: Neu5Ac(a2-6)Gal(b1-4)GlcNAc(b1-2)Man(a1-6)[Gal(b1-4)GlcNAc(b1-2)Man(a1-3)]Man(b1-4)GlcNAc(b1-4)GlcNAc
# Outline: as §1
# [19] = biological target: Neu5Ac(a2-6)Gal(b1-4)GlcNAc(b1-2)Man(a1-6)[GlcNAc(b1-2)Man(a1-3)]Man(b1-4)GlcNAc(b1-4)GlcNAc
# Outline: as §1
# [20] = biological target: Neu5Ac(a2-6)Gal(b1-4)GlcNAc(b1-2)Man(a1-6)[Man(a1-3)]Man(b1-4)GlcNAc(b1-4)GlcNAc
# Outline: as §1
# [21] = biological target: Neu5Ac(a2-6)Gal(b1-4)GlcNAc(b1-2)[Neu5Ac(a2-6)Gal(b1-4)GlcNAc(b1-4)]Man(a1-3)[GlcNAc(b1-4)][Neu5Ac(a2-6)Gal(b1-4)GlcNAc(b1-2)[Neu5Ac(a2-6)Gal(b1-4)GlcNAc(b1-6)]Man(a1-6)]Man(b1-4)GlcNAc(b1-4)GlcNAc
# Outline: as §1
# [22] = biological target: Neu5Ac(a2-6)Gal(b1-4)GlcNAc(b1-2)[Neu5Ac(a2-6)Gal(b1-4)GlcNAc(b1-4)]Man(a1-3)[GlcNAc(b1-4)][Neu5Ac(a2-6)Gal(b1-4)GlcNAc(b1-4)Man(a1-6)]Man(b1-4)GlcNAc(b1-4)GlcNAc
# Outline: as §1
# [23] = biological target: Neu5Ac(a2-6)Gal(b1-4)GlcNAc(b1-2)[Neu5Ac(a2-6)Gal(b1-4)GlcNAc(b1-6)]Man(a1-6)[Neu5Ac(a2-6)Gal(b1-4)GlcNAc(b1-2)Man(a1-3)][GlcNAc(b1-4)]Man(b1-4)GlcNAc(b1-4)GlcNAc
# Outline: as §1
# [24] = biological target: Neu5Ac(a2-6)Gal(b1-4)GlcNAc(b1-3)Gal(b1-3)GlcNAc
# Outline: as §1
# [25] = biological target: Neu5Ac(a2-6)Gal(b1-4)GlcNAc(b1-3)Gal(b1-4)GlcNAc
# Outline: as §1
# [26] = biological target: Neu5Ac(a2-6)Gal(b1-4)GlcNAc(b1-3)Gal(b1-4)GlcNAc(b1-2)Man(a1-3)[Neu5Ac(a2-6)Gal(b1-4)GlcNAc(b1-3)Gal(b1-4)GlcNAc(b1-2)Man(a1-6)]GalNAc
# Outline: as §1
# [27] = biological target: Neu5Ac(a2-6)Gal(b1-4)GlcNAc(b1-3)Gal(b1-4)GlcNAc(b1-3)Gal(b1-4)GlcNAc
# Outline: as §1
# [28] = biological target: Neu5Ac(a2-6)Gal(b1-4)GlcNAc(b1-3)Gal(b1-4)GlcNAc(b1-3)Gal(b1-4)GlcNAc(b1-2)Man(a1-3)[Neu5Ac(a2-6)Gal(b1-4)GlcNAc(b1-3)Gal(b1-4)GlcNAc(b1-3)Gal(b1-4)GlcNAc(b1-2)Man(a1-6)]GalNAc
# Outline: as §1
# [29] = biological target: Neu5Ac(a2-6)Gal(b1-4)GlcNAc(b1-3)Gal(b1-4)GlcNAc(b1-3)GalNAc
# Outline: as §1
# [30] = biological target: Neu5Ac(a2-6)Gal(b1-4)GlcNAc(b1-3)Gal(b1-4)GlcNAc(b1-3)[Neu5Ac(a2-6)Gal(b1-4)GlcNAc(b1-3)Gal(b1-4)GlcNAc(b1-6)]GalNAc
# Outline: as §1
# [31] = biological target: Neu5Ac(a2-6)Gal(b1-4)GlcNAc(b1-3)Gal(b1-4)GlcNAc(b1-6)[Gal(b1-3)]GalNAc
# Outline: as §1
# [32] = biological target: Neu5Ac(a2-6)Gal(b1-4)GlcNAc(b1-3)Gal(b1-4)[Fuc(a1-3)]GlcNAc(b1-3)Gal(b1-4)[Fuc(a1-3)]GlcNAc
# Outline: as §1
# [33] = biological target: Neu5Ac(a2-6)Gal(b1-4)GlcNAc(b1-3)GalNAc
# Outline: as §1
# [34] = biological target: Neu5Ac(a2-6)Gal(b1-4)GlcNAc(b1-3)[Neu5Ac(a2-6)Gal(b1-4)GlcNAc(b1-6)]GalNAc
# Outline: as §1
# [35] = biological target: Neu5Ac(a2-6)Gal(b1-4)GlcNAc(b1-6)GalNAc
# Outline: as §1
# [36] = biological target: Neu5Ac(a2-6)Gal(b1-4)GlcNAc(b1-6)[Gal(b1-3)GlcNAc(b1-3)]Gal(b1-4)Glc
# Outline: as §1
# [37] = biological target: Neu5Ac(a2-6)Gal(b1-4)GlcNAc(b1-6)[Gal(b1-3)]GalNAc
# Outline: as §1
# [38] = biological target: Neu5Ac(a2-6)Gal(b1-4)GlcNAc6S
# Outline: as §1
# Neu5Ac(a2-6)GalNAc = biological target: Neu5Ac(a2-6)GalNAc
# Outline: as §1
# [39] = biological target: Neu5Ac(a2-6)GalNAc(b1-4)GlcNAc
# Outline: as §1
# [40] = biological target: Neu5Ac(a2-6)GalNAc(b1-4)GlcNAc6S
# Outline: as §1
# [41] = biological target: Neu5Ac(a2-6)GlcNAc(b1-4)GlcNAc
# Outline: as §1
binder,measurement,setting,value
B1,glycan array binding signal (z-score),Neu5Ac(a2-3)GalNAc,-0.086
same,glycan array binding signal (z-score),[1],-0.643
same,glycan array binding signal (z-score),[2],-0.437
same,glycan array binding signal (z-score),[3],-0.34
same,glycan array binding signal (z-score),[4],0.034
same,glycan array binding signal (z-score),[5],-0.513
same,glycan array binding signal (z-score),Neu5Ac(a2-6)Gal,-0.303
same,glycan array binding signal (z-score),[6],-0.338
same,glycan array binding signal (z-score),Neu5Ac(a2-6)Gal(b1-4)Glc,-0.739
same,glycan array binding signal (z-score),[7],-0.2
same,glycan array binding signal (z-score),[8],1.01
same,glycan array binding signal (z-score),[9],0.757
same,glycan array binding signal (z-score),[10],0.164
same,glycan array binding signal (z-score),[11],-1
same,glycan array binding signal (z-score),[12],0.248
same,glycan array binding signal (z-score),[13],-0.404
same,glycan array binding signal (z-score),[14],0.718
same,glycan array binding signal (z-score),[15],-0.539
same,glycan array binding signal (z-score),[16],-0.714
same,glycan array binding signal (z-score),[17],0.027
same,glycan array binding signal (z-score),[18],-0.927
same,glycan array binding signal (z-score),[19],-0.638
same,glycan array binding signal (z-score),[20],-0.837
same,glycan array binding signal (z-score),[21],-0.632
same,glycan array binding signal (z-score),[22],-0.155
same,glycan array binding signal (z-score),[23],0.059
same,glycan array binding signal (z-score),[24],0.012
same,glycan array binding signal (z-score),[25],-0.597
same,glycan array binding signal (z-score),[26],-0.584
same,glycan array binding signal (z-score),[27],0.553
same,glycan array binding signal (z-score),[28],2.21
same,glycan array binding signal (z-score),[29],-0.954
same,glycan array binding signal (z-score),[30],0.627
same,glycan array binding signal (z-score),[31],0.989
same,glycan array binding signal (z-score),[32],-0.241
same,glycan array binding signal (z-score),[33],-0.688
same,glycan array binding signal (z-score),[34],0.219
same,glycan array binding signal (z-score),[35],-0.818
same,glycan array binding signal (z-score),[36],-0.851
same,glycan array binding signal (z-score),[37],0.079
same,glycan array binding signal (z-score),[38],-0.035
same,glycan array binding signal (z-score),Neu5Ac(a2-6)GalNAc,-0.173
same,glycan array binding signal (z-score),[39],-0.219
same,glycan array binding signal (z-score),[40],-0.333
same,glycan array binding signal (z-score),[41],-0.785

# Retrieved one by one from the list above (three):
binder,measurement,setting,value
B1,glycan array binding signal (z-score),[41],-0.785
same,glycan array binding signal (z-score),[26],-0.584
same,glycan array binding signal (z-score),[14],0.718
